Taken from: PubChem BioAssay AID504793 (Drosophila RNAi Screening Center, 2011)

Test: 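Knock-downs allowing continued mitosis even though DNA is damaged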 (primary screen)
System: Drosophila S2R+ cells
Reagents: long dsRNA against Drosophila genes, about 0.25 µg dsRNA per well
Timing: 4 days of dsRNA, then 4 hours of drug before read-out
Treatment: doxorubicin 0.5 µM for 4 hours to cause double-strand breaks, in cells also given a low, harmless dose of dsRNA against nbs to sensitise the assay
Detection: 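Mitotic index as the number of phospho-histone H3-positive cells in each well following doxorubicin, given as raw counts without normalisation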
Direction: mitotic cells: higher = more cells in mitosis, weaker G2 arrest
Hit rule: 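a call needs confirmation in secondary tests, with other dsRNAs and a check of mitotic timing without damage, not just a high primary count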
Meaning of the calls: active = confirmed in follow-up tests; inactive = not confirmed
The deposit covers about 23,000 reagents; below is a random part of those with a known target gene and a result. In the full data, 62 (0.27%) are marked active. 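Calls come from follow-up tests whose scores are not deposited, so confirmed genes may have low counts here; counts are not normalised per plate.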 The raw values are shown without normalisation. Entries without a mark were called inactive. Names joined by + are all predicted targets of the reagent. Reagent sequences are not shown.

Target gene,DRSC id,"mitotic cells, replicate 1","mitotic cells, replicate 2"
RYa-R (RYamide receptor),DRSC16757,12,
CG12278,DRSC14494,1,
Cdc6 (Cell division cycle 6),DRSC10563,5,
tim (timeless),DRSC00841,10,
CG31678,DRSC02618,4,
CG31678,DRSC02619,3,
CG34129,DRSC15960,17,
CG44005,DRSC36534,13,
CG44005,DRSC36535,6,
aralar1,DRSC13987,4,
aralar1,DRSC16901,4,
aralar1,DRSC29693,7,
Mdr50 (Multi drug resistance 50),DRSC07467,7,
Mdr50 (Multi drug resistance 50),DRSC23705,3,
Ranbp21,DRSC19447,5,2
Polr2J (RNA polymerase II subunit J),DRSC02995,2,
Polr2J (RNA polymerase II subunit J),DRSC27111,17,
ND-B14 (NADH dehydrogenase (ubiquinone) B14 subunit),DRSC07029,3,
ND-B14 (NADH dehydrogenase (ubiquinone) B14 subunit),DRSC28660,5,
Mst77F (Male-specific transcript 77F),DRSC11871,3,
CG8329,DRSC10978,5,
CG8329,DRSC26746,5,
CG6142,DRSC15976,8,
CG14591,DRSC04868,4,
Diedel3 (Diedel 3),DRSC19544,7,
CG10694,DRSC14263,5,
Vha36-2 (Vacuolar H[+] ATPase 36kD subunit 2),DRSC06294,2,
Vha36-2 (Vacuolar H[+] ATPase 36kD subunit 2),DRSC29238,3,
CG6421,DRSC07420,3,
CG6421,DRSC29544,6,
Sulf1 (Sulfated),DRSC16874,3,
Sulf1 (Sulfated),DRSC27279,9,
Ror,DRSC03414,3,
CG33502 + CG32857 + CG32500,DRSC20817,15,
CG33502 + CG32857 + CG32500,DRSC21038,11,
CG15043,DRSC19619,8,
CG15043,DRSC29563,8,
ppk21 (pickpocket 21),DRSC14466,14,
Rdl (Resistant to dieldrin),DRSC11264,11,
Rdl (Resistant to dieldrin),DRSC27696,5,
Xrcc2 (X-ray repair cross complementing 2),DRSC19984,9,
Xrcc2 (X-ray repair cross complementing 2),DRSC29513,2,
IntS9 (Integrator 9),DRSC10493,4,
IntS9 (Integrator 9),DRSC28991,2,
CG14687,DRSC14910,5,
CG14687,DRSC29639,7,
nkd (naked cuticle),DRSC11376,2,
nkd (naked cuticle),DRSC26962,5,
Ets96B,DRSC16127,16,
Ets96B,DRSC27110,5,
Zwilch,DRSC15376,13,
IM33 (Immune induced molecule 33),DRSC00476,1,
IM33 (Immune induced molecule 33),DRSC24513,4,
CG9877,DRSC04587,8,
CG9877,DRSC25386,5,

Entries above whose gene name begins with X or x:
Target gene,DRSC id,"mitotic cells, replicate 1","mitotic cells, replicate 2"
Xrcc2 (X-ray repair cross complementing 2),DRSC19984,9,
Xrcc2 (X-ray repair cross complementing 2),DRSC29513,2,

Next entries follow.
Target gene,DRSC id,"mitotic cells, replicate 1","mitotic cells, replicate 2"
CG14397,DRSC02381,7,
"Caf1-180 (Chromatin assembly factor 1, p180 subunit)",DRSC17807,6,
"Caf1-180 (Chromatin assembly factor 1, p180 subunit)",DRSC24150,5,
CG18518,DRSC01509,5,
Sse (Separase),DRSC09746,15,
CG10514,DRSC14249,11,
CG10514,DRSC28098,8,
CG5390,DRSC02855,3,
CG5390,DRSC27775,9,
CG2889,DRSC18236,12,
Npc2a (Niemann-Pick type C-2a),DRSC00698,6,
CG4676,DRSC06879,3,
CG13474,DRSC10018,5,
"MetRS-m (Methionyl-tRNA synthetase, mitochondrial)",DRSC16443,10,
"MetRS-m (Methionyl-tRNA synthetase, mitochondrial)",DRSC16515,9,
Vps45 (Vacuolar protein sorting 45),DRSC16398,11,
CG30114,DRSC05707,8,
CG30114,DRSC25433,9,
CG9316,DRSC03195,1,
CG15890,DRSC19737,15,
ATP7,DRSC19819,10,
Hrb27C (Heterogeneous nuclear ribonucleoprotein at 27C),DRSC03347,23,
Hrb27C (Heterogeneous nuclear ribonucleoprotein at 27C),DRSC28323,12,
CG34354,DRSC15645,7,
CG34354,DRSC23054,6,
CG10137,DRSC02014,4,
CG10137,DRSC02015,8,
CG10137,DRSC27098,4,
CG10863,DRSC08145,4,
Cyp6w1 (Cytochrome P450 6w1),DRSC04909,6,
drk (downstream of receptor kinase),DRSC07606,2,
drk (downstream of receptor kinase),DRSC27911,6,
unc-4,DRSC20381,9,
unc-4,DRSC22074,10,
unc-4,DRSC25459,2,
CG11409,DRSC18579,6,
CG11409,DRSC28360,8,
pad (poils au dos),DRSC14227,7,
pad (poils au dos),DRSC26048,6,
Poxm (Pox meso),DRSC16793,6,
Poxm (Pox meso),DRSC22839,7,
wap (wings apart),DRSC20626,6,
puc (puckered),DRSC17034,4,
puc (puckered),DRSC26308,7,
Rdh1 (Retinol dehydrogenase 1),DRSC06812,9,
H15,DRSC03339,6,
H15,DRSC22199,9,
H15,DRSC25176,9,
CG42458,DRSC23129,13,
CG42458,DRSC23261,7,
CG42458,DRSC26691,5,
CG42458,DRSC29831,3,
Ttc30 (Tetratricopeptide repeat domain 30),DRSC02818,9,
Ttc30 (Tetratricopeptide repeat domain 30),DRSC25846,3,
smg (smaug),DRSC11397,3,
smg (smaug),DRSC28033,9,
